Values quoted from earlier work in patent US12403100B2, “Natural combination products and methods for regulation of total blood cholesterol” (priority 2018, dated 2025).

Sequences of proteins named here, by UniProt entry; tags and fusion partners are left off.
UniProt P08684, whole entry: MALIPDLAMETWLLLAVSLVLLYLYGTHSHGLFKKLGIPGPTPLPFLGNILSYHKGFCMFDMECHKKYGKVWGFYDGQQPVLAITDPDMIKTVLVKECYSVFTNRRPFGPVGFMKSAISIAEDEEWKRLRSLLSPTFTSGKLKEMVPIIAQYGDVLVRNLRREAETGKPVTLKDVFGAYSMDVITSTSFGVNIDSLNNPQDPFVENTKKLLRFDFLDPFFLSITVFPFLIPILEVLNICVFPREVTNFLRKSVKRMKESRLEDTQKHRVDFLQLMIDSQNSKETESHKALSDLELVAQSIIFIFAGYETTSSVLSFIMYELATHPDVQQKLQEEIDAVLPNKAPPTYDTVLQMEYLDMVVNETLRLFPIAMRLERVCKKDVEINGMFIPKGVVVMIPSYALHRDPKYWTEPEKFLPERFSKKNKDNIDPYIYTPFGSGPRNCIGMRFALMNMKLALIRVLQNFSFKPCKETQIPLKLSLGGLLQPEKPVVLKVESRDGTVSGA

Columns and labels:
[1] = in vivo
CYP 3A4 = CYP 3A4 (Homo sapiens, UniProt P08684)
[2] = in vivo; remark: listed apart in the source

SMILES: CC(C)c1c(C(=O)Nc2ccccc2)c(-c2ccccc2)c(-c2ccc(F)cc2)n1CC[C@@H](O)C[C@@H](O)CC(=O)O [Atorvastatin]
- Binding to Plasma proteins (%) (plasma proteins): 98%
- Absorption (%) [1]: 95-99%
- Renal excretion (%) [1]: 2%
- Metabolism by CYP450 (CYP450): Yes
- metabolized by CYP 3A4 (CYP 3A4): metabolized
- Passing through the blood-brain barrier [2]: Yes
